For 2 compounds, Mean food intake results are on record in patent US8575116B1, “Polyacetylenic compounds for protecting against pancreatic islet atrophy” (Academia Sinica, priority 2010, dated 2013).

The data set can be described thus: Food intake of db/db mice during treatment. The format is in vivo, mouse.

Consider `CC#CC#CC#CC#CCCC(CO)O[C@@H]1O[C@H](CO)[C@@H](O)[C@H](O)[C@H]1O` (stereo partly drawn) [cytopiloyne, 2-β-D-glucopyranosyloxy-1-hydroxytrideca-5,7,9,11-tetrayne], for which the Mean food intake is, setting by setting: (0.5 mg/kg/day, week 1) 5.9 g/mouse/day; (0.5 mg/kg/day, week 2) 6.5 g/mouse/day; (0.5 mg/kg/day, week 4) 6.6 g/mouse/day; (0.5 mg/kg/day, week 6) 7.0 g/mouse/day; (2.5 mg/kg/day, week 1) 4.7 g/mouse/day; (2.5 mg/kg/day, week 2) 4.7 g/mouse/day. Moreover, the Mean food intake runs as follows: (2.5 mg/kg/day, week 4) 6.0 g/mouse/day; (2.5 mg/kg/day, week 6) 6.1 g/mouse/day.

As to `CCC1=C(C)CN(C(=O)NCCc2ccc(S(=O)(=O)NC(=O)N[C@H]3CC[C@H](C)CC3)cc2)C1=O` [glimepiride, reference compound], the Mean food intake is, setting by setting: (2.5 mg/kg/day, week 1) 4.3 g/mouse/day; (2.5 mg/kg/day, week 2) 5.3 g/mouse/day; (2.5 mg/kg/day, week 4) 6.5 g/mouse/day; (2.5 mg/kg/day, week 6) 6.7 g/mouse/day.
